No constants are given. Whether binding was seen depends on the method and setting. Binding seen in cells or lysates may run through a third protein. Some binding calls cover weakened binding; strength is not graded here.

By UniProt entry, the sequences of proteins in these tests, tags left out.
UniProt P47811: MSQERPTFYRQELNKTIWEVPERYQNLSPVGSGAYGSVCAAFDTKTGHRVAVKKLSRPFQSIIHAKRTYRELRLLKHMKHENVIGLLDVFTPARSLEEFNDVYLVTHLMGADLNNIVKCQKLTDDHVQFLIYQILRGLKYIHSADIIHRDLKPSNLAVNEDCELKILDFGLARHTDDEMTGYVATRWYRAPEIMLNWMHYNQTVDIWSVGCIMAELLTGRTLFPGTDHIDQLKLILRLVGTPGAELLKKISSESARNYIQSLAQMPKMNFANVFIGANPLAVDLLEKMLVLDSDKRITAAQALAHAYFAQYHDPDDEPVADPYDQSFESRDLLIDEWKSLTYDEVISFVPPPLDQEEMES
UniProt Q16539: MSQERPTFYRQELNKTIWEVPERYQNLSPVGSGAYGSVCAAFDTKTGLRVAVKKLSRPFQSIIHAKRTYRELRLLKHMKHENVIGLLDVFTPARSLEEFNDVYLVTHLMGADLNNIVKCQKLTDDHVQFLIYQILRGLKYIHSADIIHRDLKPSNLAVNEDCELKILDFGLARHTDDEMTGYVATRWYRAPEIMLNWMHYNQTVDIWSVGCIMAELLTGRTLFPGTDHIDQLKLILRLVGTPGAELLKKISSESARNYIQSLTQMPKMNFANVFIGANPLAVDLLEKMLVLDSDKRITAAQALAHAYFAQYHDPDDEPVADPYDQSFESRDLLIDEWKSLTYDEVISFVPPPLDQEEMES
UniProt O35625: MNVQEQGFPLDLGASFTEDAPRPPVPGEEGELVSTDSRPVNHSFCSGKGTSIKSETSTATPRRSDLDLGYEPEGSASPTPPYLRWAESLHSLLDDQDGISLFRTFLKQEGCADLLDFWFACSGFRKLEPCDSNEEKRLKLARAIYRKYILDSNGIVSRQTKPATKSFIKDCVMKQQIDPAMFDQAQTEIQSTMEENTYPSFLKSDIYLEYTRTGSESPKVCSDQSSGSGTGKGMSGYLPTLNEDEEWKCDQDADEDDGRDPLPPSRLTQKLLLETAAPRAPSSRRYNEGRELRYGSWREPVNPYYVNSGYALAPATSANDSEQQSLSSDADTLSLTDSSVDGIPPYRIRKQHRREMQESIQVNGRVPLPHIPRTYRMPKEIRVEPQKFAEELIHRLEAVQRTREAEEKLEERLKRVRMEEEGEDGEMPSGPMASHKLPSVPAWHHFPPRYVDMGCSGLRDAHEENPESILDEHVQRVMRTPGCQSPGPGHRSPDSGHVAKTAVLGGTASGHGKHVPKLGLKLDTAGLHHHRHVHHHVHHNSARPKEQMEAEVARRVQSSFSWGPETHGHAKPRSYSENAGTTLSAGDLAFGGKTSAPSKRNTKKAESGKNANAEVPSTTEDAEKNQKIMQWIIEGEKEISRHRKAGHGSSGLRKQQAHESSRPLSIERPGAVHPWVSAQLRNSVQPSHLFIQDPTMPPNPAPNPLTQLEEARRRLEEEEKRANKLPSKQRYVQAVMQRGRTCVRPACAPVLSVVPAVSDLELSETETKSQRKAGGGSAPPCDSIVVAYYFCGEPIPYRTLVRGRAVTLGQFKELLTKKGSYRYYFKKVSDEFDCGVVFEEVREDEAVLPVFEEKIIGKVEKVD
UniProt O15169: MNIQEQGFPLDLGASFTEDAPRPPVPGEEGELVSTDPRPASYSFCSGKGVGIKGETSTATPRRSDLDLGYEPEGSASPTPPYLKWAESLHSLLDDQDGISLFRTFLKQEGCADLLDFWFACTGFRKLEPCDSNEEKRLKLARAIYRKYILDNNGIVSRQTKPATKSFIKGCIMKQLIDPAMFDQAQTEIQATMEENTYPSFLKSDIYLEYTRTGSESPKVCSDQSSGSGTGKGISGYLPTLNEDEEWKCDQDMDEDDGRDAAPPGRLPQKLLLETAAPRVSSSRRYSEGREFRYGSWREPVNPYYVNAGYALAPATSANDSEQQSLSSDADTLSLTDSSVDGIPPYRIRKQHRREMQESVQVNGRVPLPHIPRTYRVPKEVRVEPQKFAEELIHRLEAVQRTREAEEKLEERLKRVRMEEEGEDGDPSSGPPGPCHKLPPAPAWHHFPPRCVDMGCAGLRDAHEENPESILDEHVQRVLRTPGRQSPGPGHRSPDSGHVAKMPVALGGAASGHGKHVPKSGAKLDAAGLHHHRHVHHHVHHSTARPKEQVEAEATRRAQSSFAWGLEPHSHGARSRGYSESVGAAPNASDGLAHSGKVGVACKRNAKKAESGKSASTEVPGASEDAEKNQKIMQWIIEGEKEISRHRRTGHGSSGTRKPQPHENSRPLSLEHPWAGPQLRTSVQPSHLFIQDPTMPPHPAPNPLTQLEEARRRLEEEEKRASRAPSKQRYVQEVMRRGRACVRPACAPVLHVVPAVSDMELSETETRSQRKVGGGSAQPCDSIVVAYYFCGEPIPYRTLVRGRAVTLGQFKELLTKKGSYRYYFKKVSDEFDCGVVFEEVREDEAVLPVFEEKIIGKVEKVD
UniProt Q61315: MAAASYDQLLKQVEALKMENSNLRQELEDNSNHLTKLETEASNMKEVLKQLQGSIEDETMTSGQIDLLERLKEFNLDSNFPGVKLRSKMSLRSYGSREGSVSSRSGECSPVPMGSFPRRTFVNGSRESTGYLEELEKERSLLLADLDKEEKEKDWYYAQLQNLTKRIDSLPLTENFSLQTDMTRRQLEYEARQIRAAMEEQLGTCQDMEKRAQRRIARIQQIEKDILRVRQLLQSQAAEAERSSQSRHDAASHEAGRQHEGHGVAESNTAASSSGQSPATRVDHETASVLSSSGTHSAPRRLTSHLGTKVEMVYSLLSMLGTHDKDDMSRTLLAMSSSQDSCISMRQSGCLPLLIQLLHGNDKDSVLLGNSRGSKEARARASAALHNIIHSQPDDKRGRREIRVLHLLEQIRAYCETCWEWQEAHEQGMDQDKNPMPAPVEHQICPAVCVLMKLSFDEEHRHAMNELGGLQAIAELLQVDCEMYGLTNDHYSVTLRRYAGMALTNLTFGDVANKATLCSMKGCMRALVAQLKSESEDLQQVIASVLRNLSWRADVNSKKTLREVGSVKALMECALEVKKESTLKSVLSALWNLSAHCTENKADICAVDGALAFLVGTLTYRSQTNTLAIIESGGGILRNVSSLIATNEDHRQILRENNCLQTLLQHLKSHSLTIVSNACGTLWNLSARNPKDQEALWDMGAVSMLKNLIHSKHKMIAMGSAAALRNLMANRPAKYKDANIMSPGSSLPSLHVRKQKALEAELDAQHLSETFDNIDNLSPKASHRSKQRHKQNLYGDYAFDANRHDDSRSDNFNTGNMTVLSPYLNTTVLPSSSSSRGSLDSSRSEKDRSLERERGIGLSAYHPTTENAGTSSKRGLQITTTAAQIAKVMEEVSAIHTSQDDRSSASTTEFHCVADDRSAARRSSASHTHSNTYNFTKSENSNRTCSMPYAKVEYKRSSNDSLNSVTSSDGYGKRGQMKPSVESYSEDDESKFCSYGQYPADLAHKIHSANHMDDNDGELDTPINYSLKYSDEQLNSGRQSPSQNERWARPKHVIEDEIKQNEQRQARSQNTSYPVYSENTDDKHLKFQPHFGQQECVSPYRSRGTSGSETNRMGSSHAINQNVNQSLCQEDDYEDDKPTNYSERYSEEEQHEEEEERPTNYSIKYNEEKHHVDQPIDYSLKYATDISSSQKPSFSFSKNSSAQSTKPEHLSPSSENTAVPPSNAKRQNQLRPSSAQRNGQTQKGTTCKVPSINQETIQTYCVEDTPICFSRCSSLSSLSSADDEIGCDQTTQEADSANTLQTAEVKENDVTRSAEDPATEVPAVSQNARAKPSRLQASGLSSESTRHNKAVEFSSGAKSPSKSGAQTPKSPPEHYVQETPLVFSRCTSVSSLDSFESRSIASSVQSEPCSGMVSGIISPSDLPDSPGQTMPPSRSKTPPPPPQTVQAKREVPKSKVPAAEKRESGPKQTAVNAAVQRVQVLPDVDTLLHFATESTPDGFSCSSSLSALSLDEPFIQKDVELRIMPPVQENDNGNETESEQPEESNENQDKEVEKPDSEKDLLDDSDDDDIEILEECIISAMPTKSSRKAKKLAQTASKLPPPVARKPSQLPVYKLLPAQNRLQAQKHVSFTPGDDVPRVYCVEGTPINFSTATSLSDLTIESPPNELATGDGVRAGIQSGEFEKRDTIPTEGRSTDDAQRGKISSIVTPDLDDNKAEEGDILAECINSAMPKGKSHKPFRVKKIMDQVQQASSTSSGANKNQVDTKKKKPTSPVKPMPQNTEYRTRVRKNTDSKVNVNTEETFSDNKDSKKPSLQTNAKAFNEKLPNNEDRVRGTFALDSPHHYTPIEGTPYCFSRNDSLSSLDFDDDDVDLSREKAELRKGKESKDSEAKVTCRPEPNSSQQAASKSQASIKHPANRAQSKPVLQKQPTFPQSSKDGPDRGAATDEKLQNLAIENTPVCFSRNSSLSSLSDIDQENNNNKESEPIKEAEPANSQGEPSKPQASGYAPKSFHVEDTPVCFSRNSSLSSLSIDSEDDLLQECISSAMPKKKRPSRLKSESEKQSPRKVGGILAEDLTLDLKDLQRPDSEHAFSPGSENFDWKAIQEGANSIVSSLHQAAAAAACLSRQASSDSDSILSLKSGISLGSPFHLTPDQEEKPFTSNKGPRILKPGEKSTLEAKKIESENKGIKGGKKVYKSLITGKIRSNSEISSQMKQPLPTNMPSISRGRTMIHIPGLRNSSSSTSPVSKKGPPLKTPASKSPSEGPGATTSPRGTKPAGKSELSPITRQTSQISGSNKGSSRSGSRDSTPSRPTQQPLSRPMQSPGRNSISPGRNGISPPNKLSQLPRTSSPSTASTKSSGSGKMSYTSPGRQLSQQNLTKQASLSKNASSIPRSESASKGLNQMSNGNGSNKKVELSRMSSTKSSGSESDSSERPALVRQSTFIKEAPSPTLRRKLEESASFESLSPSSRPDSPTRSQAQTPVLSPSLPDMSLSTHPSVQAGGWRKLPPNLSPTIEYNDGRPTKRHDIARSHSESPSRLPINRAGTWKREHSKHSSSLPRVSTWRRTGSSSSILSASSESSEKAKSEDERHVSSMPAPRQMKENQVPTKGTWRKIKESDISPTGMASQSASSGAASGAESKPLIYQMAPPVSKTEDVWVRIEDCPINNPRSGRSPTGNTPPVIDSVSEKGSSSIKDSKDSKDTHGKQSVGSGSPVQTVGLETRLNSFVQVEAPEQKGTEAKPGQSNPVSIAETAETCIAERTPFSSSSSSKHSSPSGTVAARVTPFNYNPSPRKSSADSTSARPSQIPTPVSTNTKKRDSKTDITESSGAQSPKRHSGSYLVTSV
UniProt Q02248: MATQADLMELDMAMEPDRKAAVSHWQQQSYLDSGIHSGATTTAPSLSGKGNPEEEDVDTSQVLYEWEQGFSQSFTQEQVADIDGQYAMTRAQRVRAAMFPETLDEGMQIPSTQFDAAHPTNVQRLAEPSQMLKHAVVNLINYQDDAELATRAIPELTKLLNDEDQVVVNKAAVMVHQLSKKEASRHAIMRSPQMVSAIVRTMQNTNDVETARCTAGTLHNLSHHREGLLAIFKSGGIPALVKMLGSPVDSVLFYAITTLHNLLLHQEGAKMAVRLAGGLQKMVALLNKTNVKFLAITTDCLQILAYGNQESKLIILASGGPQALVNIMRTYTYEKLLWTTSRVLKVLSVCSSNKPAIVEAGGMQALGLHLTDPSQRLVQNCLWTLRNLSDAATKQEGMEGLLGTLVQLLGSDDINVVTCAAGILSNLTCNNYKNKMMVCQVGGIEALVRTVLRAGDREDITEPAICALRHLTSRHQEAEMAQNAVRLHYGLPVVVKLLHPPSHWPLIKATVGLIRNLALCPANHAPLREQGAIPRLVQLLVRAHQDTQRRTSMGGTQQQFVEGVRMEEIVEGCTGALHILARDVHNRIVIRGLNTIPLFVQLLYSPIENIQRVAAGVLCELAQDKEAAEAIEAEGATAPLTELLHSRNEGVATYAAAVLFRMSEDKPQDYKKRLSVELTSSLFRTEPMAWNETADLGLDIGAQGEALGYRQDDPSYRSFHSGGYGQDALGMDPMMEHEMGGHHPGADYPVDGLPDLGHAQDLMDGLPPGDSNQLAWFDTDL

Data on four substances can be found in publication PMC10693086.

The target of test [1] is p38α (endogenous, mouse colon tissue) (mouse (endogenous in C57BL/6 colon tissue)) (UniProt P47811). Briefly: co-IP; lysate of normal colon tissue from C57BL/6 mice; immunoprecipitation with anti-p38α on Dynabeads Protein A or G, immunoblot; lysis buffer 50 mM Tris-HCl pH 7.4, 5 mM EDTA, 250 mM NaCl, 1% Triton X-100; IgG as negative control.
The target in test [2] is p38α (endogenous, HCT-116 cells) (human (endogenous in HCT-116)) (UniProt Q16539). The test can be described thus: co-IP; whole-cell lysate of HCT-116 cells, endogenous proteins; immunoprecipitation with anti-p38α on Dynabeads Protein A or G, immunoblot; lysis buffer 50 mM Tris-HCl pH 7.4, 5 mM EDTA, 250 mM NaCl, 1% Triton X-100; IgG as negative control.

For “Axin-1 (endogenous, mouse colon tissue) (from UniProt O35625 1-863)”, the binding entry in test [1] is listed as “binds”.
With “Axin-1 (endogenous, HCT-116 cells) (from UniProt O15169 1-862)”, the binding entry in test [2] is “binds”.
“APC (endogenous, mouse colon tissue) (from UniProt Q61315 1-2845)”: the binding entry in test [1] is “binds”.
Same read-out and setting: the value for “β-catenin (endogenous, mouse colon tissue) (from UniProt Q02248 1-781)” was “binds”.
